Assay results: PubChem BioAssay AID493014 (National Center for Advancing Translational Sciences (NCATS), 2011)
This is one part of the list. Shown are side measurements of this screen, not its main read-out; they come without a call. Most of these compounds were active or inconclusive in the main read-out, so they are no random draw. The note in brackets gives the kind of curve behind each potency; many fits are weak. Square brackets hold non-standard residues; d marks the D form. Peptide text beside a SMILES is read from it. * marks the point of attachment. ξ: configuration not given here. ξY = NC(Cc1ccc(O)cc1)C(=O)O; Cbz = O=C(OCc1ccccc1)*; OtBu = CC(C)(C)O*; tBu = CC(C)(C)*

Experiment: qHTS Assay to Find Inhibitors of Chronic Active B-Cell Receptor Signaling
Conditions: ABC-DLBCL IkBa-CBG/CBR reporter, luminescence ratio (green luciferase fused to IkBa over red control in TMD8 lymphoma cells), 4 h
Method in brief: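 TMD8 ABC-DLBCL cells carrying doxycycline-inducible green luciferase fused to IkappaBalpha plus unfused red luciferase were exposed to compounds (up to 46 uM) for 4 hrs at 37C. Activity came from the overlap-corrected green/red luminescence ratio.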

[1] = measured here: CBR red luminescence, cell number
[2] = measured here: IkBa-CBG green luminescence

SMILES: Cc1cccc(C(=O)NCC(c2ccco2)S(=O)(=O)c2cccs2)c1 (stereo not drawn)
- AC50 [1]: 17.8 µM [falling, single point]

SMILES: Cc1ccc(NC(=O)CSc2nnc3ccc4ccccc4n23)cc1
- AC50 [1]: 15.8 µM [rising, partial curve, poor fit]

SMILES: CC1CCN(C(=O)COC(=O)CCCN2C(=O)c3cccc4cccc(c34)C2=O)CC1
- AC50 [1]: 0.0891 µM [rising, full curve, poor fit]

SMILES: CN(Cc1ccccc1)C(=O)c1ccccc1NC(=O)C1=CSCCO1
- AC50 [1]: 14.1 µM [rising, partial curve, poor fit]

SMILES: COCCn1c(SCc2nc3ccccc3c(=O)[nH]2)nc2ccccc2c1=O
- AC50 [1]: 2.51 µM [falling, full curve, poor fit]

SMILES: O=C(NCCN1CCN(c2cccc(Cl)c2)CC1)Nc1ccccc1
- AC50 [1]: 5.01 µM [rising, single point]

SMILES: CCCC(C)n1[nH]c(=O)c2c(C)cc(C)nc21 (stereo not drawn)
- AC50 [1]: 16.4 µM [rising, partial curve, poor fit]

SMILES: Cc1nc2c(-c3ccccc3)c(C)nn2c(C)c1CCC(=O)O
- AC50 [1]: 16.4 µM [falling, partial curve, poor fit]

SMILES: CCCCNC1C(CC)C(CCC)C(C#N)(C#N)C1(C#N)C#N (stereo not drawn)
- AC50 [1]: 14.6 µM [falling, partial curve]

SMILES: CC(C)(C)OC(=O)C(Cc1ccc(OC(C)(C)C)cc1)NC(=O)CNC(=O)CNC(=O)OCc1ccccc1 (stereo not drawn) (Cbz-Gly-Gly-[ξY](tBu)-OtBu)
- AC50 [1]: 18.4 µM [rising, partial curve]

SMILES: CCOc1ccc(/C=C/C(=O)c2ccccc2)cc1OC
- AC50 [1]: 14.6 µM [falling, single point]

SMILES: CC(=O)Nc1ccc2nc(-c3ccc(Br)o3)[nH]c2c1
- AC50 [1]: 20.6 µM [falling, single point]
- AC50 [2]: 3.26 µM [rising, full curve, poor fit]

SMILES: CCN(CC)CCn1c(NC(=O)c2ccc(C(F)(F)F)cc2)nc2ccccc21
- AC50 [1]: 35.5 µM [falling, single point]

SMILES: C=CCN(C(=O)c1cccc(N2C(=O)C3CC=CC(C)C3C2=O)c1)c1ccccc1 (stereo not drawn)
- AC50 [1]: 8.91 µM [falling, partial curve]

SMILES: S=c1[nH]cnc2sc(Nc3ccccc3)nc12
- AC50 [1]: 17.8 µM [rising, partial curve, poor fit]

SMILES: O=C(O)C1(S(=O)(=O)c2ccc(Cl)cc2)CCC1
- AC50 [1]: 5.62 µM [rising, single point]

SMILES: Cc1nc2ccc(NC(=O)N3CCSCC3)cc2nc1C
- AC50 [1]: 9.2 µM [falling, partial curve, poor fit]

SMILES: COc1ccc(-c2ocnc2C(=O)N2CCN(C(=O)C(c3ccccc3)c3ccccc3)CC2)cc1
- AC50 [1]: 35.5 µM [falling, single point]

SMILES: O=C1N/C(=C/c2ccsc2)C(=O)N1c1ccccc1
- AC50 [1]: 6.31 µM [falling, full curve]

SMILES: CCC(CNc1cc(OC)cc2cccnc12)NC1CCCCC1 (stereo not drawn)
- AC50 [1]: 7.94 µM [falling, partial curve]

SMILES: CC1(C)Cc2c(sc(NC(=O)c3ccc(C(=O)c4ccccc4)cc3)c2C(N)=O)C(C)(C)N1
- AC50 [1]: 8.91 µM [falling, partial curve]
- AC50 [2]: 20 µM [rising, single point]

SMILES: CCOC(=O)[C@H]1[C@H]2COc3ccc(Br)cc3[C@@H]2N2C(=O)CN(Cc3ccc(F)cc3)C(=O)[C@@]12C
- AC50 [1]: 29.1 µM [falling, single point]
- AC50 [2]: 13 µM [rising, partial curve, poor fit]

SMILES: COc1cc2nc(NCCCN3CCN(C)CC3)n3nc(-c4ccccc4)nc3c2cc1OC
- AC50 [1]: 5.17 µM [falling, partial curve, poor fit]

SMILES: CSc1ccc(N2C(=O)NC3(CCCCC3)C2=O)cc1
- AC50 [1]: 3.55 µM [rising, full curve, poor fit]

SMILES: Cc1nn(Cc2ccccc2)c(Cl)c1/C=C/C(=O)OCC(=O)NC(C)C(C)C (stereo not drawn)
- AC50 [1]: 6.31 µM [rising, partial curve, poor fit]

SMILES: O=C(CSc1nc2ccccc2c(=O)n1Cc1ccco1)N1CCN(c2ccccc2)CC1
- AC50 [1]: 5.62 µM [falling, full curve]

SMILES: O=C1Nc2ccccc2Oc2cc(Oc3ccccc3)ccc21
- AC50 [1]: 18.4 µM [rising, partial curve]

SMILES: O=C(NNC(=O)C12CC3CC(CC(Cl)(C3)C1)C2)c1csc(N2CCOCC2)n1
- AC50 [1]: 3.16 µM [falling, partial curve, poor fit]

SMILES: Cc1ccc(Nc2nc(NCc3ccco3)c3ccccc3n2)cc1
- AC50 [2]: 11.2 µM [falling, partial curve, poor fit]

SMILES: Clc1cccc(CON/C=N/c2ncnc3sccc23)c1
- AC50 [1]: 10 µM [falling, partial curve, poor fit]

SMILES: CNc1ncc(C(=O)c2ccccc2)s1
- AC50 [1]: 11.2 µM [falling, partial curve]

SMILES: COC(=O)c1ccc2c(=O)n(CCCCCC(=O)O)c(=O)[nH]c2c1
- AC50 [1]: 29.1 µM [falling, single point]

SMILES: O=C(CSc1nc(C2CCCCC2)nc2ccccc12)NCc1ccco1
- AC50 [1]: 28.2 µM [falling, partial curve, poor fit]

SMILES: O=C(Nc1ccc2c(c1)OCCO2)c1ccccc1
- AC50 [1]: 25.1 µM [falling, single point]

SMILES: CCn1c(SCC(=O)c2ccc(O)c(O)c2)nnc1-c1ccccc1OC
- AC50 [1]: 10 µM [falling, partial curve]

SMILES: CCOC(=O)c1cc2c(s1)-c1c(C)cccc1OC2
- AC50 [1]: 20.6 µM [rising, partial curve, poor fit]

SMILES: CN(c1ccccc1)S(=O)(=O)c1ccc(NC(=O)c2nc(S(C)(=O)=O)ncc2Cl)cc1
- AC50 [1]: 7.94 µM [falling, partial curve, poor fit]

SMILES: CCc1ccc(-c2c(C)sc(NC(C)=O)c2C(N)=O)cc1
- AC50 [1]: 1 µM [rising, partial curve, poor fit]
- AC50 [2]: 10 µM [falling, partial curve]

SMILES: CC(=O)c1c(C(C)=O)c(C)n(-c2nc(-c3ccccc3)c(C)s2)c1C
- AC50 [1]: 16.4 µM [falling, single point]
